# Results from PubChem BioAssay (NCATS).
# Sequences of proteins named here, by UniProt entry; tags and fusion partners are left off. A change or cut given only in a name is not applied to a line headed by its entry.
# UniProt P01375, whole entry, looked up: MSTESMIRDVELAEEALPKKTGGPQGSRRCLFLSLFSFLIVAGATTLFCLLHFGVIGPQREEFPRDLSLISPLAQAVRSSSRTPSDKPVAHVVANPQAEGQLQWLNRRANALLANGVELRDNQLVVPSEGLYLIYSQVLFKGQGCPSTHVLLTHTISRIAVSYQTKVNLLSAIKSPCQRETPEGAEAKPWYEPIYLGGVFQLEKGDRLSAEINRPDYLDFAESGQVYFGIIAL
# UniProt P15289: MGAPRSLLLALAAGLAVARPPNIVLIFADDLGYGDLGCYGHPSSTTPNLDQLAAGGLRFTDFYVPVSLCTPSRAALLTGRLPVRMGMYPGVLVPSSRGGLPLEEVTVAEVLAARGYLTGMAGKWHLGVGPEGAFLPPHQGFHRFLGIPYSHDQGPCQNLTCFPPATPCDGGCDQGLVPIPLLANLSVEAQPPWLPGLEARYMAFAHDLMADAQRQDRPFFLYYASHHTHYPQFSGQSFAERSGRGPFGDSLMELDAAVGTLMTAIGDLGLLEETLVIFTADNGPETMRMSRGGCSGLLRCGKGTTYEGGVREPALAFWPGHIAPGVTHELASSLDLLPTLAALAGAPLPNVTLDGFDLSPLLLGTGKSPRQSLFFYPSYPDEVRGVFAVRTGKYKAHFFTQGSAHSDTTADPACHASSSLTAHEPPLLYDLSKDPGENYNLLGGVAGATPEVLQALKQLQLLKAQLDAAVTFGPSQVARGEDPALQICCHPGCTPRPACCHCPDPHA
# UniProt P51449: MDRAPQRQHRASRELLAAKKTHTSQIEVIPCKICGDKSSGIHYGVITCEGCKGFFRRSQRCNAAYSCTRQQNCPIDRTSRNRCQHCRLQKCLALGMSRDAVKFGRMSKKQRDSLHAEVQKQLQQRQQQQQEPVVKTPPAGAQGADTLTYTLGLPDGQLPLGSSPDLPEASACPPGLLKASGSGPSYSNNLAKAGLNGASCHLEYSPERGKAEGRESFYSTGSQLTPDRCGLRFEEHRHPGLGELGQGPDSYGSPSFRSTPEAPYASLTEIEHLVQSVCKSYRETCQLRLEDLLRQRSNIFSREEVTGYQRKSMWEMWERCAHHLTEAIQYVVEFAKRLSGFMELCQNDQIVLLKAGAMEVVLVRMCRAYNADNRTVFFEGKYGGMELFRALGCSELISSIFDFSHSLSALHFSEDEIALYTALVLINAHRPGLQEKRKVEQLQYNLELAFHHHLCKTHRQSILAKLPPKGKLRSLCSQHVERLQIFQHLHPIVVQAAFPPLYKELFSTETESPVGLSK
# UniProt P07947, whole entry, looked up: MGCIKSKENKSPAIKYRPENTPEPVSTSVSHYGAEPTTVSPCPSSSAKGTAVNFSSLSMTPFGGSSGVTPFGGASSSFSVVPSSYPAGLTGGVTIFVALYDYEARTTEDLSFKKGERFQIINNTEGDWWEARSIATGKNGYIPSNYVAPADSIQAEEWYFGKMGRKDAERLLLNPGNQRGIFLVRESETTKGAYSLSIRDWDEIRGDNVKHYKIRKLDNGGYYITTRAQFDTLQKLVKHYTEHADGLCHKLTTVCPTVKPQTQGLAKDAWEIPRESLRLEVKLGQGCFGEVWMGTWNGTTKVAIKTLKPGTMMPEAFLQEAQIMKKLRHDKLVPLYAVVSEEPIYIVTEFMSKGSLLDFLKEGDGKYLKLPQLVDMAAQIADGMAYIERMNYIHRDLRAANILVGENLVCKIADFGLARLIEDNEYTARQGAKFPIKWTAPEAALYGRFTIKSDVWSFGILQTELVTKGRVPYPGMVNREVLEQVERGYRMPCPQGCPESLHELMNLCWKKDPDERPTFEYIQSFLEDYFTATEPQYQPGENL
# Several values for one entry are separate records, joined by “and”; a condition that tells them apart may be missing. Equal values may be shown once. Inconclusive means that the source gave no clear call. Such entries were picked first, then a sample of the others. For some of these results: Potencies beside an inconclusive call are fits to weak or partial responses and may not hold up. For some of these results: “Side channel” marks fits to a control or component signal instead of the main read-out. Activity calls are given as the source filed them. Unless noted, calls come from the whole dose curve; as a rule, active = well fitted curve in the direction sought with a large enough effect; inconclusive = small, poorly fitted or top-dose-only effect, or another doubt; inactive = no such curve, though single readings can be large; an effect the other way counts as inactive or inconclusive.
# Legend:
# [1] = qHTS assay for small molecule agonists of the antioxidant response element (ARE) signaling pathway (AID 651741; active = well fitted activation curve with a large enough effect in the signal ratio; inconclusive = small, poorly fitted or top-dose-only effect, or effect the other way, or a change in a side signal; the % refers to the signal ratio; note: potency is the fitted concentration of half-maximal effect; for activation: % of control where 0% means no effect); settings: HepG2 ARE-bla reporter, beta-lactamase FRET ratio, 16 h
# Method in brief: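 HepG2 ARE-bla cells plated at 2,000 cells/well and incubated 5 h at 37 C/5% CO2 received 23 nL compound in DMSO. After 16 h at 37 C, LiveBLAzer B/G FRET substrate was applied for 2 h at room temperature and fluorescence read.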
# [2] = qHTS assay for small molecule activators of the p53 signaling pathway (AID 651743; active = well fitted activation curve with a large enough effect in the signal ratio, not every such curve was filed as active; inconclusive = small, poorly fitted or top-dose-only effect, or a change in a side signal; the % refers to the signal ratio; note: potency is the fitted concentration of half-maximal effect); settings: HCT-116 p53RE-bla, beta-lactamase FRET ratio, 16 h; activation: stronger effect = higher value
# Method in brief: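 HCT-116 p53RE-bla, 4,000 cells/well; 5 h settle; cpd/DMSO 16 h, 37 C; LiveBLAzer B/G 2 h RT; fluorescence intensity.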
# [3] = qHTS assay for small molecule agonists of the antioxidant response element (ARE) signaling pathway measured by Nrf2-dependant transcriptional activity (AID 720636; active = well fitted curve in the direction sought with a large enough effect in the repeat runs; inconclusive = weak or mixed curves; inactive = no such curve, though single readings can be large; an effect the other way counts as inactive or inconclusive; note: potency is the fitted concentration of half-maximal effect; for activation: % of control where 0% means no effect)
# Method in brief: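 ARE-luc HepG2 cells carrying an Nrf2-responsive luciferase reporter, in medium with 1% dialyzed FBS, exposed to compound for 16 hr at 37 C, 5% CO2. Luminescence read 30 min after ONE-Glo addition.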
# [4] = qHTS assay for small molecule activators of the nuclear factor-kappa B (NF-kB) signaling pathway (AID 651749; active = well fitted activation curve with a large enough effect in the signal ratio; inconclusive = small, poorly fitted or top-dose-only effect, or a change in a side signal; the % refers to the signal ratio; note: potency is the fitted concentration of half-maximal effect); settings: NF-kB-bla ME-180 cells, beta-lactamase FRET ratio, 16 h; activation: stronger effect = higher value
# Method in brief: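 Incubation lasted 16 hr at 37C in 5% CO2 after 23 nL compound addition to ME-180 NF-kB-bla cells. Activation appears as beta-lactamase-mediated FRET loss.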
# [5] = qHTS assay for small molecule disruptors of the mitochondrial membrane potential - 1 hr assay (AID 651754; calls by dose curve; note: potency is the fitted concentration of half-maximal effect; nearly all actives have a fitted effect of over 35% in size); settings: ratio change, negative = depolarisation: at 92.2 µM (top of the series)
# Method in brief: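 Steps: seed HepG2 cells and let attach overnight; pin-transfer compound or vehicle; incubate 1 hr at 37C; add Mito-MPS dye for 30 min; read two-channel fluorescence for monomer and aggregate forms.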
# [6] = target: Tumor necrosis factor (Homo sapiens) (UniProt P01375); experiment: qHTS assay to identify small molecules that stimulate Tumor Necrosis Factor-alpha (TNF-alpha) secretion (AID 651757; active = well fitted curve in the direction sought with a large enough effect in the signal ratio; inconclusive = small, poorly fitted or top-dose-only effect, or a change in a side signal; inactive = no such curve, though single readings can be large or run the other way; the % refers to the signal ratio; note: potency is the fitted concentration of half-maximal effect; for activation (TNF-alpha secretion): 0% is about no effect); settings: Human cells, HTRF 665/615 ratio; activation (TNF-alpha secretion): at 92.2 µM (top of the series)
# Method in brief: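 Secreted TNF-alpha from compound-treated THP-1 cells (17 hrs, 37 C) was quantified with a homogeneous time-resolved fluorescence antibody assay.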
# [7] = qHTS assay to identify small molecules that stimulate interleukin-8 (IL-8) secretion (AID 651758; active = well fitted activation curve with a large enough effect in the signal ratio; inconclusive = small, poorly fitted or top-dose-only effect, or effect the other way, or a change in a side signal; the % refers to the signal ratio; note: potency is the fitted concentration of half-maximal effect; for activation: 0% is about no effect); settings: HTRF ratio (665/615)
# Method in brief: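 THP-1 cells (2000/well) exposed to compound 16 h at 37 C; secreted IL-8 then detected by HTRF with cryptate- and XL665-labelled anti-IL-8 antibody pair after 1-3 h at room temperature.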
# [8] = target: Arylsulfatase A (Homo sapiens) (UniProt P15289); experiment: qHTS screen for enhancers of Arylsulfatase A (ASA1): LOPAC Validation Assay (AID 720538); settings: activity change, positive = activation: at 57.5 µM (top of the series); note: 0% is about no effect
# Method in brief: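 Read-out: fluorescence at Ex=525/Em=598 nm after 1N NaOH final stop. Patient fibroblasts carrying ASA-I179S had 48h compound exposure, then 14h room-temperature pNCS hydrolysis (0.5mM final) in lysis buffer. Signal increase = enhanced activity.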
# [9] = qHTS assay for small molecule disruptors of the mitochondrial membrane potential - 5 hr assay (AID 651755; calls by dose curve; note: potency is the fitted concentration of half-maximal effect; nearly all actives have a fitted effect of over 40% in size); settings: JC-1-type ratio dye; ratio change, negative = disruption: at 92.2 µM (top of the series)
# Method in brief: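 HepG2 cells (2,000/well), attached overnight, exposed to compound 5 hr at 37C, then Mito-MPS dye 30 min. Fluorescence read for monomers (490/535 nm) and aggregates (540/590 nm).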
# [10] = target: Nuclear receptor ROR-gamma (Homo sapiens) (UniProt P51449); experiment: qHTS assay for small molecule antagonists of the retinoid-related orphan receptor gamma (ROR-gamma) signaling pathway (AID 651802); note: potency is the fitted concentration of half-maximal effect; nearly all actives have a fitted effect of over 60% in size
# Method in brief: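 Antagonism is scored as a fall in luminescence from a RORE-luciferase reporter in CHO cells expressing ROR under a TET-inducible promoter, measured 16hr after doxycycline induction in the presence of compound.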
# [11] = qHTS assay for small molecule antagonists of the retinoid-related orphan receptor gamma (ROR-gamma) signaling pathway - cell viability counter screen (AID 720652; active = well fitted curve in the direction sought with a large enough effect in the repeat runs; inconclusive = weak or mixed curves; inactive = no such curve, though single readings can be large; an effect the other way counts as inactive or inconclusive;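 note: potency is the fitted concentration of half-maximal effect; compound exposure lasted 16 hr before ATP read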)
# Method in brief: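 Cytotoxicity is quantified via intracellular ATP (CellTiter-Glo luminescence) in doxycycline-induced CHO ROR response element-luciferase reporter cells treated with compound for 16 hr at 37 C, 5% CO2.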
# [12] = Cell Proliferation Assay against the TMD8 Cell Line (Caspase readout at 8 hrs) (AID 651713); settings: TMD8 lymphoma cells, caspase activation luminescence; caspase activation: at 46.1 µM (top of the series); note: potency is the fitted concentration of half-maximal effect
# Method in brief: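 Percent activity derived from Caspase-Glo signal, DMSO set to 0% and bortezomib (9.2 uM final) to 100%. TMD8 cells were exposed to compound for 8 h in RPMI with 5% FBS.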
# [13] = target: Tyrosine-protein kinase Yes (Homo sapiens) (UniProt P07947); experiment: qHTS for small molecule inhibitors of Yes1 kinase: Primary Screen (AID 686947); note: nearly all actives have a fitted effect of over 60% in size; note: potency is the fitted concentration of half-maximal effect
# Method in brief: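 ADP-Glo luminescence readout; final 4 nM Yes1, 0.1 mM ATP, 0.3 mg/mL poly(E4Y), Tris pH 7.5, MgCl2, DTT, Brij-35. 20 min compound preincubation, 60 min reaction at RT. Normalized to DMSO wells with and without enzyme.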
# [14] = activation: at 96 µM (top of the series)
# [15] = activation: at 92.2 µM (top of the series)
smiles,measurement,setting,value
COC(=O)c1ccc(O)cc1,Potency,[1]; [14],active: 19.3 µM
same,Potency,[2],"inconclusive: 0.355 µM [side channel, falling, full curve, poor fit]"
same,Potency,[3],"inconclusive: 61.1 µM [activator, partial curve, poor fit]"
Cc1cc2nc3c(=O)[nH]c(=O)nc-3n(C[C@H](O)[C@H](O)[C@H](O)CO)c2cc1C,Potency,[1]; [14],"inconclusive: 33.5 µM [fluorescent, side channel, partial curve]"
same,Potency,[4],"inconclusive: 44.7 µM [side channel, rising, partial curve, poor fit]"
same,Potency,[5],active: 5.96 µM
same,Potency,[6],"inconclusive: 53.1 µM [activator, partial curve, poor fit]"
same,activation,[7]; [15],inconclusive: -1.98%
same,Potency,[3],inactive
CN(Cc1cnc2nc(N)nc(N)c2n1)c1ccc(C(=O)N[C@@H](CCC(=O)O)C(=O)O)cc1,Potency,[1]; [14],active: 0.154 µM
CN(C)CCCN1c2ccccc2Sc2ccc(Cl)cc21,activation,[1]; [14],inconclusive: -13.3%
same,Potency,[4],"inconclusive: 44.7 µM [activator, partial curve]"
same,"activity change, positive = activation",[8],inconclusive: -48.1% [activator]
CC(CN1c2ccccc2Sc2ccccc21)N(C)C (stereo not given),Potency,[1]; [14],"inconclusive: 27.3 µM [inhibitor, partial curve, poor fit]"
same,Potency,[4],active: 25.1 µM
COc1cc(/C=C/C(=O)CC(=O)/C=C/c2ccc(O)c(OC)c2)ccc1O,Potency,[1]; [14],active: 25.9 µM
same,Potency,[2],active: 31.6 µM
same,Potency,[5],active: 3.76 µM
same,Potency,[9],active: 5.96 µM
same,activation (TNF-alpha secretion),[6],inconclusive: 1.16%
same,Potency,[7]; [15],"inconclusive: 84.1 µM [inhibitor, single point]"
same,Potency,[10],"inconclusive: 33.5 µM [inhibitor, partial curve, poor fit]"
same,Potency,[3],active: 21.1 µM
same,Potency,[11],"inconclusive: 66.8 µM [cytotoxic, single point]"
CC/C(=C(/CC)c1ccc(O)cc1)c1ccc(O)cc1,Potency,[1]; [14],active: 24.3 µM and active: 29.8 µM
same,Potency,[2],"inconclusive: 63.1 µM [side channel, falling, single point]"
same,Potency,[7]; [15],"inconclusive: 75 µM [activator, single point]"
same,Potency,[11],"inconclusive: 42.2 µM [cytotoxic, partial curve, poor fit]"
O=S(=O)(O)O,activation,[1]; [14],inconclusive: 11%
same,activation,[1]; at 96 µM (top of the series),inactive: 8.81%
same,activation,[7]; at 92.2 µM (top of the series),inactive: 14.4%
same,activation,[7]; [15],inconclusive: 1.48%
same,Potency,[11],"inconclusive: 66.8 µM [cytotoxic, partial curve, poor fit]"
CC(C)C[C@H](NC(=O)[C@H](Cc1ccccc1)NC(=O)c1cnccn1)B(O)O,Potency,[12],active: 0.833 µM
CC[C@@H]1C(=O)N(C)c2cnc(Nc3ccc(C(=O)NC4CCN(C)CC4)cc3OC)nc2N1C1CCCC1,Potency,[12],active: 29.6 µM
same,Potency,[13],"inconclusive: 38.7 µM [inhibitor, single point]"
CCc1cc(C(N)=S)ccn1,activation,[1]; [14],inconclusive: -3.84%
same,activation,[1]; at 96 µM (top of the series),inactive: -1.2%
same,activation,[7]; [15],inconclusive: -5.86%
COc1cccc2c1C(=O)c1c(O)c3c(c(O)c1C2=O)C[C@@](O)(C(=O)CO)C[C@@H]3O[C@H]1C[C@H](N)[C@H](O)[C@H](C)O1,Potency,[12],active: 3.32 µM
same,Potency,[1]; [14],"inconclusive: 4.33 µM [cytotoxic, side channel, full curve, poor fit]"
same,activation,[1]; [14],inconclusive: -19.5%
same,Potency,[2],active: 1.58 µM
same,Potency,[4],"inconclusive: 44.7 µM [side channel, falling, partial curve, poor fit]"
same,Potency,[5],active: 2.66 µM
same,Potency,[6],"inconclusive: 8.41 µM [rising, full curve, poor fit]"
same,Potency,[7]; [15],"inconclusive: 66.8 µM [inhibitor, single point]"
same,Potency,[10],"inconclusive: 1.06 µM [inhibitor, full curve, poor fit]"
same,Potency,[13],inactive
same,Potency,[3],"inconclusive: 4.33 µM [activator, full curve, poor fit]"
same,Potency,[11],active: 23.7 µM
Nc1c2ccccc2nc2ccccc12,Potency,[1]; [14],active: 10.6 µM
same,Potency,[2],active: 11.2 µM
same,activation (TNF-alpha secretion),[6],inconclusive: 1.69%
same,Potency,[7]; [15],"inconclusive: 75 µM [inhibitor, single point]"

# Exported with bars between the fields: part of the list above
smiles | measurement | setting | value
CCc1cc(C(N)=S)ccn1 | activation | [1]; at 96 µM (top of the series) | inactive: -1.2%
same | activation | [7]; [15] | inconclusive: -5.86%
COc1cccc2c1C(=O)c1c(O)c3c(c(O)c1C2=O)C[C@@](O)(C(=O)CO)C[C@@H]3O[C@H]1C[C@H](N)[C@H](O)[C@H](C)O1 | Potency | [12] | active: 3.32 µM
same | Potency | [1]; [14] | inconclusive: 4.33 µM [cytotoxic, side channel, full curve, poor fit]
